Values quoted from earlier work in patent US7282340B2, “Methods for identifying an analog that promotes nerve regeneration” (Oregon Health Sciences University, priority 1997, dated 2007).
At least one structure is not confirmed: it was looked up by name or label, or the drawing left a doubt.

System: rat sciatic nerve
Settings: systemic administration; cited from earlier work

C=CC[C@@H]1/C=C(\C)C[C@H](C)C[C@H](OC)[C@H]2O[C@@](O)(C(=O)C(=O)N3CCCC[C@H]3C(=O)O[C@H](/C(C)=C/[C@@H]3CC[C@@H](O)[C@H](OC)C3)[C@H](C)[C@@H](O)CC1=O)[C@H](C)C[C@@H]2OC [FK506]
Functional recovery following a nerve-crush lesion: speeds functional recovery
